# Read-outs that look alike come from different tables or passages of the source. These are yes or no findings as the source states them, for the method shown. Binding seen in cells or lysates may run through a third protein. A yes stands for co-enrichment or nearness to the bait. Other partners may have been found. For some of these results: A no says only that the protein was not detected with the bait. Where a sequence is shown, tags or fusion partners need not be part of it.
# Amino acid sequences for entries named in this document (tags omitted). A change or cut given only in a name is not applied to a line headed by its entry.
# UniProt Q27497: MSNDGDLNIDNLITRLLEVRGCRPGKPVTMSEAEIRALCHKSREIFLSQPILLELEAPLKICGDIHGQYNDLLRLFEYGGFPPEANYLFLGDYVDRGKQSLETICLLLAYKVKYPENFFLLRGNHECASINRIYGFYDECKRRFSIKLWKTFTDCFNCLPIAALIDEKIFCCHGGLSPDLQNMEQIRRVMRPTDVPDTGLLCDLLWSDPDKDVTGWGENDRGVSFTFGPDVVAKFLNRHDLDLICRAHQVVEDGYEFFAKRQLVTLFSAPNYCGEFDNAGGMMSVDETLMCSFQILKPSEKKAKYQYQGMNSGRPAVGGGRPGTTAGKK
# UniProt P48727: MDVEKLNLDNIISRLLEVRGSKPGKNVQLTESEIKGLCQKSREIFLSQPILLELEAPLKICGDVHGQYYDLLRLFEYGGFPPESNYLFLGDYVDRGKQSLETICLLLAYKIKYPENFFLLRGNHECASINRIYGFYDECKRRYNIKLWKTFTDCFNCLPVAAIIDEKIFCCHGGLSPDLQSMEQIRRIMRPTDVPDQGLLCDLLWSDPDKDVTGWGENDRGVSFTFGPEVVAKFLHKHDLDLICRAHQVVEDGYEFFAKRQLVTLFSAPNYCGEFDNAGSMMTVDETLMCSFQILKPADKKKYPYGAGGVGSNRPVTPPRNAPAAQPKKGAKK
# UniProt Q95PZ1: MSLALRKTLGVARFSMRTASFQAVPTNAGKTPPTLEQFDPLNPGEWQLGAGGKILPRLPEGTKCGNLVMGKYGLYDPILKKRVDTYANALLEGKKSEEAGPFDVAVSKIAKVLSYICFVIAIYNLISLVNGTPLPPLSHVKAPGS
# T1: GRAS-1::GFP (C. elegans) (UniProt Q93654)
# T1 sequence: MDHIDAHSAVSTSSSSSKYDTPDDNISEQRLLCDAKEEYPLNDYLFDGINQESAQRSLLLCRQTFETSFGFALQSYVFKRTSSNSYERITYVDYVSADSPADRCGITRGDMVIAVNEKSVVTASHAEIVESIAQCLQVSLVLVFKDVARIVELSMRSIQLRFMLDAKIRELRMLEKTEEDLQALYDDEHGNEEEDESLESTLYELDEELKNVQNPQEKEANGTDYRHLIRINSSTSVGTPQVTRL
# Legend:
# [1] = target: T1, GRAS-1::GFP (C. elegans); assay: affinity purification with mass spectrometry; anti-GFP immunoprecipitation from homogenised 24h post-L4 worms expressing GRAS-1::GFP; four independent experiments against 4 controls; hits above 1.5-fold change
# [2] = target: T1, GRAS-1::GFP (C. elegans); assay: as above; remark: listed apart in the source
Molecule,binding [1],binding [2]
GSP-1 (from UniProt Q27497 1-329),binds,–
NPP-3 (C. elegans (endogenous in whole worms)),binds,–
GSP-2 (from UniProt P48727 1-333),binds,–
NPP-13 (C. elegans (endogenous in whole worms)),binds,–
FKB-6 (C. elegans (endogenous in whole worms)),no binding,–
KASH protein KDP-1 (from UniProt Q95PZ1),binds,–
motor protein kinesin KLP-17 (C. elegans (endogenous in whole worms)),binds,–
"GRP-1 (protein, UniProt P34512 1-393) MSSRYSERNGLSETEKMTLPKVRKRKAQLVDEIEALKNEVREVDEELDQVYYTHPKSKEYHKIVVNGRKKFNQDPWKALDWLASRNVVAKDPQALALWMKAGEGLSKSAIGEILGDNRPFALETLDRFTKEHKLHDVPIVPALRQYLFSFRLPGESQKINRILEKFAEVYANQNPSYGNADQAHTVAYSCIMVNTLLHNPNVKDKPSLEKYIEMNEQLLEKGAITIEQLTEVYESVSVTQFKIPDEVSTSGKGTVNDILLHAEREGWLFKQSSNPLFSGALSWKKRWFVLSENCLYYFDQMTDKEPKGIITLANVGIRKVEAPSRPFMFEIFSLSDGQIKACKTEQDGRLVEGRHSIYKICAVNDEDMRSWINAISRMMAPQQHLLARPKSTH",–,binds
"LMN-1 (protein, UniProt Q21443 1-566) MSSRKGTRSSRIVTLERSANSSLSNNGGGDDSFGSTLLETSRLQEKDHLTSLNSRLATYIDKVRQLEQENNRLQVQIRDIEVVEKKEKSNLADRFEAEKARLRRALDSAQDELAKYRIEYDAAKVEVKKLKPQVEKLERELAGAEEQALHAQSIADQSQAKQKTLQARNDKLVVENDDLKKQNITLRDTVEGLKKAVEDETLLRTAANNKIKALEEDLAFALQQHKGELEEVRHKRQVDMTTYAKQINDEYQSKLQDQIEEMRAQFKNNLHQNKTAFEDAYKNKLNAARERQEEAVSEAIHLRARVRDLETSSSGNASLIERLRSELDTLKRSFQEKLDDKDARIAELNQEIERMMSEFHDLLDVKIQLDAELKTYQALLEGEEERLNLTQEAPQNTSVHHVSFSSGGASAQRGVKRRRVVDVNGEDQDIDYLNRRSKLNKETVGPVGIDEVDEEGKWVRVANNSEEEQSIGGYKLVVKAGNKEASFQFSSRMKLAPHASATVWSADAGAVHHPPEVYVMKKQQWPIGDNPSARLEDSEGDTVSSITVEFSESSDPSDPADRCSIM",–,binds
"PLK-1 (protein, UniProt P34331 1-648) MNRLPNIAKPPQKSNQRKEKAPPEVPALIADKDRGTYYEKGRFLGKGGFAHCYELTNRATREVVAGKVVPKSMLVKQYQRDKMTQEVQIHRELGHINIVKLFNFFEDNLNVYITLELCARRSLMELHKRRKAVTEPEARYFTHQIVDGVLYLHDLNIIHRDMKLGNLFLNDDLVVKIGDFGLATTVNGDERKKTLCGTPNYIAPEVLNKAGHSFEVDIWAVGCILYILLFGQPPFESKSLEETYSRIRHNNYTIPSIATQPAASLIRKMLDPEPTRRPTAKQVQRDGFFKSGFMPTRLPVSCLTMVPKFGGHETSMMEENVAPRGVDARSQRPLNGRAGLSALPQHIVSNNADRERAQQQAAEATFREPEDAYLSQLFHQVAVLLEQRIPGLEEEEAALDGYQSPECLPVFWISKWVDYSDKYGIGYQLCDNSVGVLFNDNSRIMLDQAGNELTYIEKSNKEHYFSMHSGEMPGLLNKKVTLLKYFRSYMNDHLVKAGEGSEQRAGDDLARLPTLRVWFRTKSAIVLHLSNGTVQINFFNDHVKMMMCPLMQAVTFIDQNKRMLTYKLNNLQRNGCPEKFLHRLKYAKTMIERLMSDANVVSQNPARQPDMPRSMAAARSASAGSRGPNQAASHLPQSASGSNIHPRR",–,binds
"α-importin nuclear transport IMA-2 protein (protein, UniProt P91276 1-531) MTLTETSLSHNAEEGKDEGGRLQQYKNLTKHEELRRRRTECSVEIRKQKGADMMMKRRNIVDVDEGGNSESELEEPEKISHQQSSTRLSNDEIRAILSNNPSEDDMVRCFESLRKSLSKTKNPPIDEVIHCGLLQALVQALSVENERVQYEAAWALTNIVSGSTEQTIAAVEAGVTIPLIHLSVHQSAQISEQALWAVANIAGDSSQLRDYVIKCHGVEALMHLMEKVDQLGDSHVRTIAWAFSNMCRHKNPHAPLEVLRVLSKGLVKLVQHTDRQVRQDACWAVSYLTDGPDEQIELARESGVLPHVVAFFKEAENLVAPALRTLGNVATGNDSLTQAVIDLGSLDEILPLMEKTRSSSIVKECCWLVSNIIAGTQKQIQAVLDANLLPVLINVLKSGDHKCQFEASWALSNLAQGGTNRQVVAMLEDNVVPALCQALLQTNTDMLNNTLETLYTLMLTVQNGYPHKVDILHDQVEENGGLDSLERLQESQSEQIYTQAYRIITQFFTDDDAGEKESHENADPQDNKWSF",–,binds
"IMA-3 (protein, UniProt Q19969 1-514) MSSNRQAYYKNNAKEQIGKEKRNEEVVSIRKDKREEAISKRRNINTQIEDDSETSTTPPGPFDANLLRLTVAAAQSSDPAEQLTAVQQARKMLSTDRNPPIDDLIGSGILPVLVQCLSSTDPNLQFEAAWALTNIASGTSEQTQAVVNAGAVPLFLQLLSCGNLNVCEQSVWALGNIIGDGPHFRDYCLELGILQPLLQFINPEIPIGFLRNVTWVIVNLCRCKDPAPSPAVVRTILPALSLLIHHQDTNILIDTVWALSYLTDGGNEHIQMVIEAQVVTHLVPLLGHVDVKVQTAALRAVGNIVTGTDEQTQLVLDSGVLRFMPGLLAHYKEKINKEAVWFVSNITAGNQQQVQDVFDAGIMPMIIHLLDRGDFPTQKEAAWAISNVTISGRPNQVEQMVKLGVLRPFCAMLSCTDSQIIQVVLDGINNILKMAGEAAEQVTSEIEECGGLDKIENLQNHENEDIYKLAFEIIDNFFSSDDETGNVEGAQSSAFGGDVPPVPDAPNGGWNFGK",–,binds
"separase (protein, UniProt G5ED39 1-1262) MKITNKSVDKQHIEKLDELRKNVSCTVIGFAEQTAELQQEISELFIAEFGVNGPIDMNSLSKLARITSYYASSEYFQGLAKYQRTACKMFITWQTLRKEAMECRSKDREIFASIPAKLCFFYFYNGELCRAVVCLLDYIDLSDDTLAKEAALRWLMFLGETELIEKKLKTWKMDKSSKDMFSATEFAMNYLKKSEYRVEMLEKLMKLRDKVKSDPTRSFSRYELASYVSWLCSTLSNVPVGSALRECEFPDRVSHIQEAALKSDSLVRNRIPGLASSQFDNSVNASIWPFLDGHQEDSNYYVHIGSTIAWHFEMRRECALVNVTTAQTRDSMSAMILNLRVALKSASFFRVLQTTNTLAYYSSIIEEAGSEKNAKLMRVSCVNLLSSNPIIVRCSTPKETGATSRAHTPMAGSSVSEKQNTMRPDLADLLGDLELLDEQSFHPITRSCVCNVCTIYPLHSSFAAEYMMSYAIHSDFSQLSIKHFNDEFARIRERGMSSQVLMHRDSSVRPRPNIIQNEIFGMCVIRWLTKKLDSKESADEDTMEIFNNALKIVRYLQQRTTDMILAVTQLGRQLEFPMECNYSWMRPTIRKPRVKATIDCAVDILRAVSPFGRRPKVEKLEKNLQPFDKERFEKVRLAMRNEMNHYGHILYREWRCRLFAYVGRTSRDPWEAAYAWAESTQIGARNAVQSRLEKCKRGLVTMSGHDRFKTCVQSMPDEMTLVQIAMADDKTIYLVKLHADRDPIIMPLAHYSQAVELMDKFTFLLDEDEMIAKYPGDITPEEFWKRRKIVDGRMMTFVDEVQKHFLGVAASLLMPSGQLGPKAAELAIKIHKLSKGGLLLGEAKEMVYQSKLMDAKSWEALILRFCEMRTTDEKFKSFLPLMHRNSVEVMNQDDSIVTEKKYTYLVICPHLSQFCWERLPIFDEYPYVGRQVSIHSTFSQLEAMKSQEKQIPLQIDVQNAYYILDPDNNLGETQKRMVEYINKFNWEGTVGSAPKSNEISAALSQRDAFFFIGHGSGSSVMPRSVLKQSTCNAISLLMGCGSVRTIPQALGFDGKTAILDYAMAKCPLIVGCLWTVTDGEIDRFLIRMIDDCFEDSKSLTGIDKLRQLSEAMHEARSKARLKYLTGAAVVMYGLPVVAKQTTPFVEKDQRNLPQTPKTSARTSMRMETVPKTPKQEFVTSKSVPMTPIFSNNENKSPSRARMPSRVLKTPRQVKTFQEEDDEAPKRSTTRQLKPLVAPPIPATPTTRTTRSSARTPSRSRNL",–,binds

# Source: publication PMC9983901
